Measurements reported in PubChem BioAssay (NCATS).
Inconclusive means that the source gave no clear call. Such entries were picked first, then a sample of the others. Where the call is inconclusive, the potency comes from a doubtful curve fit. Activity calls are given as the source filed them. How the source made its calls: active means clear falling dose curves in both reporters; inconclusive means both reporters move, but less clearly or upward; inactive means either reporter flat; the % is the FLuc reporter signal.

Experiment: Cell-based coincidence reporter assay to measure PMP22 gene transcription in S16 Pmp22-F2sN cells - Confirmatory screen (AID 1508646)
Conditions: S16 Schwann cells Pmp22-F2sN, dual luciferase, 24 h; series mostly up to 57.5 µM; activity change, negative = inhibition: at the top concentration
Summary of the method: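 S16 rat Schwann cells carrying FLuc-2A-NLuc reporter in Pmp22 3' UTR (500-1,000 cells/well) treated with pinned compounds for 24 h at 37C. Dual-luciferase reads: FLuc luminescence first, then NLuc after Stop&Glo.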
Potency means the concentration at half of the fitted maximal effect.

Row | Structure (SMILES) | Potency | activity change, negative = inhibition
1 | Cc1cc(Nc2cccc(Br)c2)n2c(nc3ccccc32)c1C#N | inconclusive: 43.2 µM [phenotype inactive, single point] | 
2 | Cc1cccc(NC(=O)c2sc3nc4c(cc3c2N)CCCCCC4)c1C |  | inactive: -39.8%
3 | COc1ccc(-c2onc(C)c2C)cc1S(=O)(=O)NCc1ccc(C)o1 | inconclusive: 15.3 µM [phenotype inactive, single point] | 
4 | COc1ccc(NC(=O)c2oc3ccccc3c2NC(=O)Cc2ccc(F)cc2)c(OC)c1 | inconclusive: 10.9 µM [phenotype inactive, full curve, poor fit] | 
5 | Cc1ccc(CCNC(=O)c2ccc(Nc3nc4ccccc4n4nnnc34)cc2)cc1 | inconclusive: 21.7 µM [phenotype inactive, partial curve] | 
6 | Cc1cc(C)c(NC(=O)Cn2c(=O)oc3cc(S(=O)(=O)N4CCCCCC4)ccc32)c(C)c1 | inconclusive: 30.6 µM [phenotype inactive, partial curve, poor fit] | 
7 | CCC(C)n1c(=N)c(C(=O)NC2CCCC2)cc2c(=O)n3ccccc3nc21 (stereo not drawn) |  | inactive: -30.7%
8 | CCOc1ccc(NC(=O)Cn2c(=O)n(Cc3ccc4c(c3)OCO4)c(=O)c3ccc(C(=O)NC4CCCCC4)cc32)cc1 | active: 12.5 µM | 
9 | CC(=O)N1CCCc2cc(S(=O)(=O)N3CCCC(C(=O)N4CCN(c5cccc(Cl)c5)CC4)C3)ccc21 (stereo not drawn) | inconclusive: 24.3 µM [phenotype inactive, partial curve] | 
10 | CCn1c(=O)cc(OCC(=O)N2CCN(c3ccccc3OC)CC2)c2ccccc21 |  | inactive: -12.4%
11 | COc1ccccc1NC(=O)Cn1nnc(C(=O)NCc2cccs2)c1N | inconclusive: 3.06 µM [phenotype inactive, partial curve] | 
12 | O=C(NCc1ccccc1Cl)C1CCN(S(=O)(=O)c2ccc3c(c2)CCCN3C(=O)C2CCC2)CC1 |  | inactive: -19.7%
13 | COc1ccc(NC(=O)CSc2nc(-c3ccco3)cc(C(F)(F)F)n2)cc1 |  | inactive: 22.5%
14 | CCN(CC)CCOC(=O)c1ccc(NC(=O)Cn2ncc3c([nH]c4ccc(C)cc43)c2=O)cc1 | active: 12.9 µM | 
15 | O=C(NCc1ccccc1Cl)c1ccc(Nc2nc3ccccc3n3nnnc23)cc1 | inconclusive: 15.3 µM [phenotype inactive, full curve, poor fit] | 
16 | COc1ccc(NC(=O)C2CCCN(c3nnc(C)c4c(C)n(-c5ccccc5)nc34)C2)cc1Cl (stereo not drawn) | inconclusive: 27.3 µM [phenotype inactive, partial curve] | 
17 | COCCn1c(SCc2ccccc2F)nc2c([nH]c3ccccc32)c1=O | inconclusive: 24.3 µM [phenotype inactive, partial curve, poor fit] | 
18 | COc1ccc(-n2nc3c(N4CCCC(C(=O)NCCc5ccccc5C)C4)nnc(C)c3c2C)cc1 (stereo not drawn) | inconclusive: 24.3 µM [phenotype inactive, partial curve] | 

One compound at a time (already shown).
`CCN(CC)CCOC(=O)c1ccc(NC(=O)Cn2ncc3c([nH]c4ccc(C)cc43)c2=O)cc1` is entered as Potency: active: 12.9 µM
`Cc1cc(C)c(NC(=O)Cn2c(=O)oc3cc(S(=O)(=O)N4CCCCCC4)ccc32)c(C)c1` is entered as Potency: inconclusive: 30.6 µM [phenotype inactive, partial curve, poor fit]
